Here are results for five molecules from US20250000946A1.

Protein sequences, listed by entry. Tags and fused reporters are not part of them. Lines headed by an entry give the natural chain unless they say otherwise; changes in a name come on top.
UniProt P01589: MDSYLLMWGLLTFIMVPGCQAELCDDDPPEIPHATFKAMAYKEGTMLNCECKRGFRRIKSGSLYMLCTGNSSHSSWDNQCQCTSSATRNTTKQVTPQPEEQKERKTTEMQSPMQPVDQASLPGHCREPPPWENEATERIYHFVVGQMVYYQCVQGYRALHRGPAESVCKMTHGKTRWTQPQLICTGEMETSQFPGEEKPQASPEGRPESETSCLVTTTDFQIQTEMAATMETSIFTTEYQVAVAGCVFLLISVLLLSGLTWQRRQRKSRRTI

These are yes or no findings as the source states them, for the method shown. Some entries that bind do so weakly or less than the wild type. For part of these data: Where a sequence is shown, tags or fusion partners need not be part of it.

Assay [1] deals with Human IL-2Rβ/γ (intermediate affinity IL-2 receptor) (human) (UniProt P14784+P31785). The assay can be described thus: FACS on HH cells (IL-2Rβ/γ), 30 min at 4 °C, PE anti-human Fc, MFI.
Assay [2] deals with T1, W369-hPro2.ECD.His, IL2Rβ ECD (human) (UniProt P14784).
T1 sequence: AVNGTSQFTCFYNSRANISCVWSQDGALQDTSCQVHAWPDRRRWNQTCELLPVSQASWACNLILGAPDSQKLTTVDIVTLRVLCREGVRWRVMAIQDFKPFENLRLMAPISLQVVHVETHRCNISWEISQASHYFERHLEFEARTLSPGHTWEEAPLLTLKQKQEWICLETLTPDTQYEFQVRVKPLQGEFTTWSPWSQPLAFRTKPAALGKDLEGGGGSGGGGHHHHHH
The assay can be described thus: SPR Biacore 8K.

Assay [3] has as its target T2, W369-hPro1.ECD.His, IL-2Rγ ECD (human) (UniProt P31785).
T2 sequence: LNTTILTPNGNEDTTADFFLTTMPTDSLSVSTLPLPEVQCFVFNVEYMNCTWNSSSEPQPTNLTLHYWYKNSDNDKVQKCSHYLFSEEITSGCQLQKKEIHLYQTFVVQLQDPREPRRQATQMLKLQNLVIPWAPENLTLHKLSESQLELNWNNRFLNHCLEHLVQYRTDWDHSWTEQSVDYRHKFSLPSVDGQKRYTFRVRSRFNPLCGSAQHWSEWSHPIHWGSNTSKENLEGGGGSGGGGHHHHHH
The assay can be described thus: SPR; variant pre-complexed 1:1 with IL-2Rβ, IL-2Rγc on the chip.

Assay [4] concerns the target T2, W369-hPro1.ECD.His, IL-2Rγ ECD (human). The assay can be described thus: SPR (Biacore 8K): variant pre-mixed 1:1 with human IL-2Rβ ECD (W369-hPro2.ECD.His), injected over immobilised human IL-2Rγc [panel 1 of the lower row].
In assay [5] the target is Human IL-2Rα/β/γ complex (high affinity IL-2 receptor) (human) (UniProt P01589+P14784+P31785). The assay can be described thus: FACS on MJ20 cells (IL-2Rα/β/γ), 30 min at 4 °C, PE anti-human Fc, MFI.

B1: W3XX115-T2U0.E44-30.uIgG4V1 (Fc fusion)
chain: APTSSSTKKTQLQLEHLLLDLQMILNGINNYKNPKLTRMLTFKFYMPKKATELKHLQCLEEELKPLEEVLNLAQSKNFHLRPRDLISNINVIVLELKGSETTFMCEYADETATIVEFLNRWITFCQSITESKYGPPCPPCPAPEFLGGPSVFLFPPKPKDTLMISRTPEVTCVVVDVSQEDPEVQFNWYVDGVEVHNAKTKPREEQFNSTYRVVSVLTVLHQDWLNGKEYKCKVSNKGLPSSIEKTISKAKGQPREPQVYTLPPCQEEMTKNQVSLWCLVKGFYPSDIAVEWESNGQPENNYKTTPPVLDSDGSFFLYSRLTVDKSRWQEGNVFSCSVMHEALHNHYTQKSLSLSLG
heavy: EIQLQQSGPELVKPGASVKVSCKASGYSFTDYNMYWVKQSHGESLEWIGYIDPYNGGTRYNQKFKGKATLTVDKSSSTAFMHLNSLTSEDSAVYYCARNGHWDGAWFAYWGQGTLVTVSAASTKGPSVFPLAPCSRSTSESTAALGCLVKDYFPEPVTVSWNSGALTSGVHTFPAVLQSSGLYSLSSVVTVPSSSLGTKTYTCNVDHKPSNTKVDKRVESKYGPPCPPCPAPEFLGGPSVFLFPPKPKDTLMISRTPEVTCVVVDVSQEDPEVQFNWYVDGVEVHNAKTKPREEQFNSTYRVVSVLTVLHQDWLNGKEYKCKVSNKGLPSSIEKTISKAKGQPREPQVCTLPPSQEEMTKNQVSLSCAVKGFYPSDIAVEWESNGQPENNYKTTPPVLDSDGSFFLVSRLTVDKSRWQEGNVFSCSVMHEALHNHYTQKSLSLSLG
light: DIQMNQSPSSLSASLGDTITITCHASQNINVWLSWYQQKPGNIPKLLIYKASNLHTGVPSRFSGSRSGTGFTLTISSLQPEDIATYYCHQGQSYPFTFGSGTKLEIKRTVAAPSVFIFPPSDEQLKSGTASVVCLLNNFYPREAKVQWKVDNALQSGNSQESVTEQDSKDSTYSLSSTLTLSKADYEKHKVYACEVTHQGLSSPVTKSFNRGEC
On to B1, for which, in assay [1], the binding entry is on record as “binds”.

B2: W3XX115-T2U0.E44-32.uIgG4V322 (Fc fusion)
chain: APTSSSTKKTQLQLEHLLLDLQMILNGINNYKNPKLTRMLTIKFYMPKKATELKHLQCLEEELKPLEEVLNLAQSKNFHLRPRDLISNINVIVLELKGSETTFMCEYADETATIVEFLNRWITFCQSILESKYGPPCPPCPAPEAAGGPSVFLFPPKPKDTLMISRTPEVTCVVVDVSQEDPEVQFNWYVDGVEVHNAKTKPREEQFNSTYRVVSVLTVLHQDWLNGKEYKCKVSNKGLPSSIEKTISKAKGQPREPQVYTLPPCQEEMTKNQVSLWCLVKGFYPSDIAVEWESNGQPENNYKTTPPVLDSDGSFFLYSRLTVDKSRWQEGNVFSCSVMHEALHNHYTQKSLSLSLG
heavy: EIQLQQSGPELVKPGASVKVSCKASGYSFTDYNMYWVKQSHGESLEWIGYIDPYNGGTRYNQKFKGKATLTVDKSSSTAFMHLNSLTSEDSAVYYCARNGHWDGAWFAYWGQGTLVTVSAASTKGPSVFPLAPCSRSTSESTAALGCLVKDYFPEPVTVSWNSGALTSGVHTFPAVLQSSGLYSLSSVVTVPSSSLGTKTYTCNVDHKPSNTKVDKRVESKYGPPCPPCPAPEAAGGPSVFLFPPKPKDTLMISRTPEVTCVVVDVSQEDPEVQFNWYVDGVEVHNAKTKPREEQFNSTYRVVSVLTVLHQDWLNGKEYKCKVSNKGLPSSIEKTISKAKGQPREPQVCTLPPSQEEMTKNQVSLSCAVKGFYPSDIAVEWESNGQPENNYKTTPPVLDSDGSFFLVSRLTVDKSRWQEGNVFSCSVMHEALHNHYTQKSLSLSLG
light: DIQMNQSPSSLSASLGDTITITCHASQNINVWLSWYQQKPGNIPKLLIYKASNLHTGVPSRFSGSRSGTGFTLTISSLQPEDIATYYCHQGQSYPFTFGSGTKLEIKRTVAAPSVFIFPPSDEQLKSGTASVVCLLNNFYPREAKVQWKVDNALQSGNSQESVTEQDSKDSTYSLSSTLTLSKADYEKHKVYACEVTHQGLSSPVTKSFNRGEC
On to B2, for which the binding entry in assay [1] was “binds”.

B3: W3XX115-T2U0.E44-33.uIgG4V322 (Fc fusion)
chain: APTSSSTKKTQLQLEHLLLDLQMILNGINNYKNPKLTWMLTFKFYMPKKATELKHLQCLEEELKPLEEVLNLAQSKNFHLRPRDLISNINVIVLELKGSETTFMCEYADETATIVEFLNRWITFCQSILESKYGPPCPPCPAPEAAGGPSVFLFPPKPKDTLMISRTPEVTCVVVDVSQEDPEVQFNWYVDGVEVHNAKTKPREEQFNSTYRVVSVLTVLHQDWLNGKEYKCKVSNKGLPSSIEKTISKAKGQPREPQVYTLPPCQEEMTKNQVSLWCLVKGFYPSDIAVEWESNGQPENNYKTTPPVLDSDGSFFLYSRLTVDKSRWQEGNVFSCSVMHEALHNHYTQKSLSLSLG
heavy: EIQLQQSGPELVKPGASVKVSCKASGYSFTDYNMYWVKQSHGESLEWIGYIDPYNGGTRYNQKFKGKATLTVDKSSSTAFMHLNSLTSEDSAVYYCARNGHWDGAWFAYWGQGTLVTVSAASTKGPSVFPLAPCSRSTSESTAALGCLVKDYFPEPVTVSWNSGALTSGVHTFPAVLQSSGLYSLSSVVTVPSSSLGTKTYTCNVDHKPSNTKVDKRVESKYGPPCPPCPAPEAAGGPSVFLFPPKPKDTLMISRTPEVTCVVVDVSQEDPEVQFNWYVDGVEVHNAKTKPREEQFNSTYRVVSVLTVLHQDWLNGKEYKCKVSNKGLPSSIEKTISKAKGQPREPQVCTLPPSQEEMTKNQVSLSCAVKGFYPSDIAVEWESNGQPENNYKTTPPVLDSDGSFFLVSRLTVDKSRWQEGNVFSCSVMHEALHNHYTQKSLSLSLG
light: DIQMNQSPSSLSASLGDTITITCHASQNINVWLSWYQQKPGNIPKLLIYKASNLHTGVPSRFSGSRSGTGFTLTISSLQPEDIATYYCHQGQSYPFTFGSGTKLEIKRTVAAPSVFIFPPSDEQLKSGTASVVCLLNNFYPREAKVQWKVDNALQSGNSQESVTEQDSKDSTYSLSSTLTLSKADYEKHKVYACEVTHQGLSSPVTKSFNRGEC
For the molecule B3, the binding entry in assay [1], in assay [2], in assay [3], in assay [4] and in assay [5] was “binds” throughout.

B4: W3XX115-T2U0.E44-39.uIgG4V322 (Fc fusion)
chain: APTSSSTKKTQLQLEHLLLDLQMILNGINNYKNPKLTRMLTFKFYMPKKATELKHLQCLEEELKPLEEVLNLAQSKNFHLRPRDLISNINVIVLELKGSETTFMCEYADETATIVEFLNRWITFCQSAIESKYGPPCPPCPAPEAAGGPSVFLFPPKPKDTLMISRTPEVTCVVVDVSQEDPEVQFNWYVDGVEVHNAKTKPREEQFNSTYRVVSVLTVLHQDWLNGKEYKCKVSNKGLPSSIEKTISKAKGQPREPQVYTLPPCQEEMTKNQVSLWCLVKGFYPSDIAVEWESNGQPENNYKTTPPVLDSDGSFFLYSRLTVDKSRWQEGNVFSCSVMHEALHNHYTQKSLSLSLG
heavy: EIQLQQSGPELVKPGASVKVSCKASGYSFTDYNMYWVKQSHGESLEWIGYIDPYNGGTRYNQKFKGKATLTVDKSSSTAFMHLNSLTSEDSAVYYCARNGHWDGAWFAYWGQGTLVTVSAASTKGPSVFPLAPCSRSTSESTAALGCLVKDYFPEPVTVSWNSGALTSGVHTFPAVLQSSGLYSLSSVVTVPSSSLGTKTYTCNVDHKPSNTKVDKRVESKYGPPCPPCPAPEAAGGPSVFLFPPKPKDTLMISRTPEVTCVVVDVSQEDPEVQFNWYVDGVEVHNAKTKPREEQFNSTYRVVSVLTVLHQDWLNGKEYKCKVSNKGLPSSIEKTISKAKGQPREPQVCTLPPSQEEMTKNQVSLSCAVKGFYPSDIAVEWESNGQPENNYKTTPPVLDSDGSFFLVSRLTVDKSRWQEGNVFSCSVMHEALHNHYTQKSLSLSLG
light: DIQMNQSPSSLSASLGDTITITCHASQNINVWLSWYQQKPGNIPKLLIYKASNLHTGVPSRFSGSRSGTGFTLTISSLQPEDIATYYCHQGQSYPFTFGSGTKLEIKRTVAAPSVFIFPPSDEQLKSGTASVVCLLNNFYPREAKVQWKVDNALQSGNSQESVTEQDSKDSTYSLSSTLTLSKADYEKHKVYACEVTHQGLSSPVTKSFNRGEC
On to B4, for which the binding result in assay [5] was “binds”.

B5: W3XX115-T2U0.E44-31.uIgG4V322 (Fc fusion)
chain: APTSSSTKKTQLQLEHLLLDLQMILNGINNYKNPKLTRMLTVKFYMPKKATELKHLQCLEEELKPLEEVLNLAQSKNFHLRPRDLISNINVIVLELKGSETTFMCEYADETATIVEFLNRWITFCQSILESKYGPPCPPCPAPEAAGGPSVFLFPPKPKDTLMISRTPEVTCVVVDVSQEDPEVQFNWYVDGVEVHNAKTKPREEQFNSTYRVVSVLTVLHQDWLNGKEYKCKVSNKGLPSSIEKTISKAKGQPREPQVYTLPPCQEEMTKNQVSLWCLVKGFYPSDIAVEWESNGQPENNYKTTPPVLDSDGSFFLYSRLTVDKSRWQEGNVFSCSVMHEALHNHYTQKSLSLSLG
heavy: EIQLQQSGPELVKPGASVKVSCKASGYSFTDYNMYWVKQSHGESLEWIGYIDPYNGGTRYNQKFKGKATLTVDKSSSTAFMHLNSLTSEDSAVYYCARNGHWDGAWFAYWGQGTLVTVSAASTKGPSVFPLAPCSRSTSESTAALGCLVKDYFPEPVTVSWNSGALTSGVHTFPAVLQSSGLYSLSSVVTVPSSSLGTKTYTCNVDHKPSNTKVDKRVESKYGPPCPPCPAPEAAGGPSVFLFPPKPKDTLMISRTPEVTCVVVDVSQEDPEVQFNWYVDGVEVHNAKTKPREEQFNSTYRVVSVLTVLHQDWLNGKEYKCKVSNKGLPSSIEKTISKAKGQPREPQVCTLPPSQEEMTKNQVSLSCAVKGFYPSDIAVEWESNGQPENNYKTTPPVLDSDGSFFLVSRLTVDKSRWQEGNVFSCSVMHEALHNHYTQKSLSLSLG
light: DIQMNQSPSSLSASLGDTITITCHASQNINVWLSWYQQKPGNIPKLLIYKASNLHTGVPSRFSGSRSGTGFTLTISSLQPEDIATYYCHQGQSYPFTFGSGTKLEIKRTVAAPSVFIFPPSDEQLKSGTASVVCLLNNFYPREAKVQWKVDNALQSGNSQESVTEQDSKDSTYSLSSTLTLSKADYEKHKVYACEVTHQGLSSPVTKSFNRGEC
As to B5, the binding entry in assay [1] is recorded as “binds”.
